Data taken from PubChem BioAssay AID2685 (National Center for Advancing Translational Sciences (NCATS), 2010).
The other results are listed elsewhere or left out. Shown are side measurements of this screen, not its main read-out; they come without a call. Compounds called inactive in the main read-out are mostly missing here. Potencies come from curve fits of mixed quality, noted in brackets.

Assay: qHTS Assay for Lipid Storage Modulators in Drosophila S3 Cells;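 on cell number change: cells counted by Cell Tracker Red CMTPX staining in the red channel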
Details: BODIPY lipid droplet fluorescence, 18-24 h; for cell number change: measured here: cell count max response, cells fed with added oleic acid
Outline: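 Drosophila S3 cells got compounds at several concentrations plus oleic acid (400 uM solution). Laser-scanning cytometry with 488 nm excitation read lipid droplets at 500-530 nm and cells at 575-640 nm. Percent activity was relative to 20 uM Triacsin C.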

[1] = measured here: cell number channel AC50, cells fed with added oleic acid
[2] = measured here: lipid fluorescence (Fed channel) AC50, cells fed with added oleic acid

c1ccc(CSc2nnc3ccc(-c4ccncc4)nn23)cc1
cell number change: -29%
AC50 [1]: 3.66 µM [falling, full curve, poor fit]
AC50 [2]: 29.1 µM [falling, single point]

CCN(CC)S(=O)(=O)c1cnccc1N1CCN(c2cccc(Cl)c2)CC1
cell number change: 6.26%
AC50 [2]: 1.46 µM [rising, full curve]

NS(=O)(=O)c1cc(C(=O)OCC(=O)Nc2ccc(N3CCCCC3)cc2)ccc1Cl
cell number change: 27.1%
AC50 [2]: 6.51 µM [falling, single point]

Cc1cccc(N2N=C(C(=O)Nc3ccc(Cl)c(S(=O)(=O)N4CCOCC4)c3)CCC2=O)c1
cell number change: -9.27%
AC50 [2]: 29.1 µM [falling, single point]

CCCCNS(=O)(=O)c1ccc(NC(=O)C2CCCO2)cc1 (centres undefined)
cell number change: 1.1%
AC50 [2]: 0.92 µM [rising, full curve, poor fit]

Cc1c(C(=O)NC2CCN(Cc3ccccc3)C2)oc2c(Cl)cccc12 (centres undefined)
cell number change: 42.2%
AC50 [1]: 29.1 µM [rising, single point]
AC50 [2]: 0.58 µM [falling, single point]

O=C(CSc1nnc(NC(=O)Cc2ccccc2)s1)NCc1ccco1
cell number change: -30%

COc1ccc(-n2nc(C(=O)NCC(=O)N3CCCC(C)C3)c3ccccc3c2=O)cc1Cl (centres undefined)
cell number change: -31.7%
AC50 [1]: 29.1 µM [falling, single point]

Fc1cccc(CSc2ccc(-c3ccc4c(c3)OCO4)nn2)c1
cell number change: -0.569%
AC50 [2]: 0.0058 µM [rising, full curve, poor fit]

COc1cc(C=O)c(Br)cc1OCc1ccc(C)cc1
cell number change: -17.4%
AC50 [1]: 0.82 µM [rising, single point]

O=C(COc1ccccc1Cl)Nc1cccnc1
cell number change: 13.9%
AC50 [2]: 6.51 µM [rising, full curve, poor fit]

CNc1c(NS(=O)(=O)c2cc(NC(C)=O)ccc2C)c(=O)oc2ccccc12
cell number change: -6.76%

O=C(NC1CCCc2ccccc21)C1CCCO1 (centres undefined)
cell number change: 18.5%
AC50 [2]: 0.146 µM [falling, full curve, poor fit]

O=C(NCCC1=CCCCC1)C1CCN(S(=O)(=O)c2ccccc2C(F)(F)F)CC1
cell number change: 219%
AC50 [1]: 20.6 µM [rising, single point]

CCOC(=O)CCCCC(=O)c1[nH]c(=O)[nH]c1CSc1nc(C)cc(=O)[nH]1
cell number change: 8.09%
AC50 [2]: 0.0058 µM [rising, full curve, poor fit]

CCN1CCN(c2cc(N3CCN(C(=O)c4ccco4)CC3)c3c4c(onc24)-c2ccccc2C3=O)CC1
cell number change: -35.8%
AC50 [1]: 8.2 µM [falling, full curve, poor fit]

Cc1cc(NC(=O)CSCC(=O)Nc2cc(C(F)(F)F)ccc2N2CCCC2)no1
cell number change: 19.7%
AC50 [2]: 13 µM [rising, partial curve, poor fit]

COc1ccc2cc(S(=O)(=O)NCc3cccnc3)ccc2c1
cell number change: -10.5%
AC50 [1]: 0.82 µM [falling, partial curve, poor fit]
AC50 [2]: 5.62 µM [rising, single point]

COc1cccc(/C=N/NC(=O)CN2CC(c3ccccc3)CC2=O)c1OC (centres undefined)
cell number change: 17.3%

O=C(NN=C1c2ccccc2-c2ccccc21)c1ccccn1
cell number change: -17.3%
AC50 [2]: 0.92 µM [falling, full curve, poor fit]

O=C(O)c1cccc(NC(=S)N/N=C/c2c[nH]c3ccccc23)c1
cell number change: 86.8%
AC50 [1]: 29.1 µM [rising, partial curve, poor fit]
AC50 [2]: 6.51 µM [rising, single point]

CCOC(=O)CNC(=O)CSc1nnc(Cn2cnc3ccccc32)n1C
cell number change: 3.81%
AC50 [2]: 29.1 µM [falling, partial curve]

COc1ccc(N2C(=O)c3ccccc3NC2(C)C)cc1
cell number change: -23%
AC50 [2]: 2.91 µM [falling, partial curve, poor fit]

Cc1nn(-c2ccccc2)c2[nH]c(=O)c(CNCC3CCCO3)cc12 (centres undefined)
cell number change: -4.22%
AC50 [2]: 1.3 µM [falling, full curve]

O=c1cc(C(Cl)(Cl)Cl)oc2c1ccc1ccccc12
cell number change: -20.2%
AC50 [2]: 5.8 µM [falling, full curve]

CCN(CC)CCNC(=O)c1ccc(N)cc1
cell number change: 20.3%
AC50 [2]: 0.058 µM [rising, full curve, poor fit]

CC1CN(S(=O)(=O)c2ccc(NC(=O)CCCN3C(=O)c4ccccc4C3=O)cc2)CC(C)O1 (centres undefined)
AC50 [1]: 4.11 µM [rising, single point]
AC50 [2]: 6.51 µM [rising, single point]

COc1ccc(Br)cc1CN1CCN(C(=O)c2cccc(F)c2)CC1
cell number change: 15.3%
AC50 [2]: 20.6 µM [rising, single point]

Cc1ccc(CSCC(=O)N/N=C/c2ccc(OCC(=O)Nc3ccc(C)cc3)cc2)cc1
cell number change: 10.3%

CC(=O)NNC(=O)CN1C(=O)/C(=C/c2ccccc2)SC1=S
cell number change: 10.4%

Cc1ccc(-c2csc(NC(=O)C[n+]3cc(-c4ccccc4)n4c3CCC4)n2)cc1
cell number change: 4.88%

Fc1ccc(-c2nnc(CN3CCC(c4nc5ccccc5s4)CC3)o2)cc1
cell number change: 15.2%
AC50 [2]: 0.0651 µM [falling, full curve, poor fit]

CC(NC(=O)CN1CCN(Cc2ccc(Cl)cc2)C1=O)c1ccc2c(c1)OCCO2 (centres undefined)
cell number change: -7.21%
AC50 [2]: 20.6 µM [falling, single point]

CC(C)n1c(SCc2cc(=O)[nH]c3ccccc23)nc2c1c(=O)n(C)c(=O)n2C
cell number change: 27.4%
AC50 [2]: 2.06 µM [rising, partial curve]

COc1ccc2[nH]c(=O)c(CNc3ccccc3)cc2c1
cell number change: -28.2%
AC50 [2]: 6.51 µM [falling, partial curve, poor fit]

CCN1C(=O)CC(N2CCC(Cc3ccccc3)CC2)C1=O (centres undefined)
cell number change: -30.1%
AC50 [1]: 2.91 µM [falling, full curve]
AC50 [2]: 0.231 µM [falling, full curve]

CSc1nsc(SCC(=O)Nc2cccc(C(C)=O)c2)n1
cell number change: 42.9%
AC50 [1]: 29.1 µM [rising, single point]

CSc1nccc(N2CCN(c3ccc(F)cc3)CC2)n1
cell number change: -53.7%
AC50 [1]: 0.326 µM [falling, partial curve]
AC50 [2]: 2.06 µM [rising, partial curve]

O=C(Nc1ccccc1NS(=O)(=O)c1ccc(F)cc1)C1CCC1
cell number change: 9.26%
AC50 [1]: 0.116 µM [rising, single point]
AC50 [2]: 0.116 µM [rising, single point]

COc1ccccc1-c1cc(C(=O)NC2CCCC2)no1
cell number change: 18.3%

COc1ccc(CCNC(=O)c2cc([N+](=O)[O-])cc([N+](=O)[O-])c2)cc1OC
cell number change: 14%
AC50 [2]: 0.326 µM [rising, full curve]

O=C(CSc1ncn[nH]1)NCCOc1ccccc1
cell number change: 1.55%
AC50 [2]: 4.11 µM [falling, single point]

CCn1cc(CN2CCCC(C(=O)c3ccc(-c4ccccc4)cc3)C2)cn1 (centres undefined)
cell number change: -6.35%

COc1ccc(CNC(=O)[C@H](C)N2C(=O)N3CCc4c([nH]c5ccccc45)[C@@]3(C)C2=O)cc1OC
cell number change: -5.5%
AC50 [2]: 2.31 µM [falling, partial curve]

CN(Cc1ccco1)C(=O)CSc1nc(C2CC2)n(-c2ccccc2)n1
cell number change: -16.6%
AC50 [2]: 0.259 µM [rising, full curve]

CN(C)S(=O)(=O)c1ccc(N2CCCC2)c(C(=O)Nc2ccc(N3CCOCC3)cc2)c1
cell number change: 31.7%
AC50 [1]: 29.1 µM [rising, single point]
AC50 [2]: 4.11 µM [rising, full curve]

Cc1ccc(NC(=O)CN(C)C(=O)c2cccnc2Nc2cccc(C(F)(F)F)c2)cc1
cell number change: -34.8%
AC50 [1]: 18.4 µM [falling, single point]
AC50 [2]: 29.1 µM [falling, single point]

CN(Cc1ccc(F)cc1)C(=O)c1ccc(NS(=O)(=O)c2ccccc2)cc1
cell number change: 73.4%
AC50 [1]: 29.1 µM [rising, single point]

O=C(COc1ccccc1)N(Cc1cccc(F)c1)C1CCS(=O)(=O)C1 (centres undefined)
cell number change: 17.2%
AC50 [2]: 29.1 µM [falling, single point]

COc1ccc(-c2csc(NC(=O)Cc3cccc4ccccc34)c2C(=O)O)cc1
cell number change: -16.6%

COc1ccc(-c2csc(-c3cccs3)n2)c(OC)c1
cell number change: 21%
AC50 [2]: 0.0116 µM [falling, full curve, poor fit]

O=c1cc(CSc2nnc(-c3ccco3)o2)c2ccccc2[nH]1
cell number change: 20.6%
AC50 [1]: 4.11 µM [rising, partial curve, poor fit]
AC50 [2]: 5.8 µM [rising, partial curve]

Cc1cccc(NC(=O)NCC(F)(F)F)n1
cell number change: 42.1%
AC50 [1]: 0.0206 µM [rising, full curve, poor fit]
AC50 [2]: 29.1 µM [rising, partial curve, poor fit]

CC(C)COc1ccc(C2NC(=O)NC2=O)cc1 (centres undefined)
cell number change: -12.5%
AC50 [2]: 23.1 µM [falling, partial curve]

COc1ccc(C(=O)NCc2ccc3c(c2)cc(C)n3C)cc1OC
cell number change: 36.3%
AC50 [1]: 0.164 µM [rising, full curve, poor fit]
AC50 [2]: 29.1 µM [rising, single point]

Cc1cc(NC(=O)CCC(=O)N(CC(=O)NC2CCCC2)c2ccc(F)cc2)no1
cell number change: 2.56%
AC50 [2]: 6.51 µM [rising, single point]

CCCN(CC1CCCO1)C(=O)CCc1nnc(CCc2ccc(OC)cc2)o1 (centres undefined)
cell number change: 33.1%
AC50 [1]: 0.13 µM [rising, full curve, poor fit]

O=C(NCc1ccccc1CN1CCCC1)c1cccc(N2CCCC2=O)c1
cell number change: -1.07%
AC50 [2]: 1.84 µM [falling, partial curve, poor fit]
